Results are given in words; binding and its absence hold for the method and conditions named. Binding seen in cells or lysates may run through a third protein. Some results given as binding are weak or reduced against the parent protein; the word gives no strength.
Molecular target: T1, M-cadherin (mouse (endogenous in Ric10)) (UniProt P33146)
T1 sequence: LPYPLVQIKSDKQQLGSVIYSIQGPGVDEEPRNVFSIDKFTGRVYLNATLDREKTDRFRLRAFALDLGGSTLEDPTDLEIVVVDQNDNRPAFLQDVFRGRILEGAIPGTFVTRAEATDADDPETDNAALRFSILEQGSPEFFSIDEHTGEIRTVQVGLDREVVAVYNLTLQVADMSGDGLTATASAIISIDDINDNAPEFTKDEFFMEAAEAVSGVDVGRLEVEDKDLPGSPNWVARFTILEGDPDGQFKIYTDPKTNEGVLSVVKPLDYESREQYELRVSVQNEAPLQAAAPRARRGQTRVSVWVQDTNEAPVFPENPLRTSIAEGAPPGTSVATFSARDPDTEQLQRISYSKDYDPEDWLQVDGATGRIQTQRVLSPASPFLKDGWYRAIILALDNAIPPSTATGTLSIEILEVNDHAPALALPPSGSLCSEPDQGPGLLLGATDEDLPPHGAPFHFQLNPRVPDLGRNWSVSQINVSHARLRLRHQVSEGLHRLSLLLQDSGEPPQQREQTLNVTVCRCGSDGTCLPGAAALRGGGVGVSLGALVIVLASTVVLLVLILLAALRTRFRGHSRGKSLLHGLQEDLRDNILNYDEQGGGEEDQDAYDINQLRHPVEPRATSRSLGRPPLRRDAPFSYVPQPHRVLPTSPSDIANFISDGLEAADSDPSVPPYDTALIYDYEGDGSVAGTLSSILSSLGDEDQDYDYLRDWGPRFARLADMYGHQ
Test: co-IP; anti-M-cadherin immunoprecipitation (Pierce Crosslink Magnetic IP/Co-IP Kit) from total lysates of Ric10 cells, immunoblot for p120; cells growing (pmGM) or differentiating (pmDM), with 0.1% DMSO or 100 uM NSC23766 for 24 h

B1: p120 catenin (protein, UniProt P30999 1-938)
chain: MDDSEVESTASILASVKEQEAQFEKLTRALEEERRHVSAQLERVRVSPQDANSLMANGTLTRRHQNGRFVGDADLERQKFSDLKLNGPQDHNHLLYSTIPRMQEPGQIVETYTEEDPEGAMSVVSVETTDDGTTRRTETTVKKVVKTMTTRTVQPVPMGPDGLPVDASAVSNNYIQTLGRDFRKNGNGGPGPYVGQAGTATLPRNFHYPPDGYGRHYEDGYPGGSDNYGSLSRVTRIEERYRPSMEGYRAPSRQDVYGPQPQVRVGGSSVDLHRFHPEPYGLEDDQRSMGYDDLDYGMMSDYGTARRTGTPSDPRRRLRSYEDMIGEEVPPDQYYWAPLAQHERGSLASLDSLRKGMPPPSNWRQPELPEVIAMLGFRLDAVKSNAAAYLQHLCYRNDKVKTDVRKLKGIPILVGLLDHPKKEVHLGACGALKNISFGRDQDNKIAIKNCDGVPALVRLLRKARDMDLTEVITGTLWNLSSHDSIKMEIVDHALHALTDEVIIPHSGWEREPNEDCKPRHIEWESVLTNTAGCLRNVSSERSEARRKLRECDGLVDALIFIVQAEIGQKDSDSKLVENCVCLLRNLSYQVHREIPQAERYQEALPTVANSTGPHAASCFGAKKGKDEWFSRGKKPTEDPANDTVDFPKRTSPARGYELLFQPEVVRIYISLLKESKTPAILEASAGAIQNLCAGRWTYGRYIRSALRQEKALSAIAELLTSEHERVVKAASGALRNLAVDARNKELIGKHAIPNLVKNLPGGQQNSSWNFSEDTVVSILNTINEVIAENLEAAKKLRETQGIEKLVLINKSGNRSEKEVRAAALVLQTIWGYKELRKPLEKEGWKKSDFQVNLNNASRSQSSHSYDDSTLPLIDRNQKSDKKPDREEIPMSNMGSNTKSLDNNYSTLNERGDHNRTLDRSGDLGDMEPLKGAPLMQKI
- binding: binds

Source: PMC3846853
